Data as given in PubChem BioAssay AID1439 (NMMLSC, 2008).
The whole screen tested about 220,000 compounds, of which about 770 (0.35%) were called active. The inconclusive results got no clear call from the source; some entries with a clear call stand among them for comparison. Rule as the data show it: active = binding response below about 49% or above about 150%; inconclusive = no clear call, values can overlap the other calls; inactive = in between.

Amino acid sequences for entries named in this document (tags omitted).
UniProt P09471, whole entry, looked up: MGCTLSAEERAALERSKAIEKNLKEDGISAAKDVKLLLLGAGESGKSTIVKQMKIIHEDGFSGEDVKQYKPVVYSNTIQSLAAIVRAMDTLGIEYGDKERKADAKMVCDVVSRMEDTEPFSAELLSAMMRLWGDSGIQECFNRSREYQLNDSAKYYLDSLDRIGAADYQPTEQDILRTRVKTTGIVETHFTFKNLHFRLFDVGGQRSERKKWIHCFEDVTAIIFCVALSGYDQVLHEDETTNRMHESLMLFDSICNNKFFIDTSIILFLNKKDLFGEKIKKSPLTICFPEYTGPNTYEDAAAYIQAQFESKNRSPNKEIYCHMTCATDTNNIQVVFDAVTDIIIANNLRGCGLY

The molecules below were run against Guanine nucleotide-binding protein G(o) subunit alpha (Homo sapiens) (UniProt P09471) (assay: RGS7-Galphao binding modulators, primary screen, biochemical, multiplexed bead flow cytometry (AID 1439;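 also: fluorescent Galphao held in activated GDP-AlF4 state binding bead-coupled RGS7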)). Details: at 10 µM, actives lie on both sides.
With CC(C)(C)C1(O)CC(C(F)(F)F)=NN1C(=O)CCCc1ccccc1 (stereo unspecified) the binding response (% of control) was inconclusive: 118%. For CCn1c(SCC(=O)Nc2cc(S(=O)(=O)N3CCOCC3)ccc2OC)nnc1-c1ccncc1, the binding response (% of control) was inconclusive: 103%. For COC(=O)COc1ccc(C2Nc3c(Cl)ccc(C(=O)O)c3C3C=CCC32)cc1 (stereo unspecified), the binding response (% of control) was inconclusive: 122%. With COc1ccc(/C=N/NC(=O)c2ccc(CSc3nncn3C)cc2)cc1OC the binding response (% of control) was inconclusive: 80.2%. In the case of COC(=O)c1ccc(COc2ccccc2/C=N/NC(N)=O)o1, the binding response (% of control) was inconclusive: 108%. Cc1ccc2c(c1)c1ccc3c(c1n2C)C(=O)C=CC3=O was tested, and the binding response (% of control) was inconclusive: 70.1%. With CCCCC1=CC2=CC(=O)C(C)(OC(=O)CC)C(=O)C2=CN1c1ccccc1 (stereo unspecified) the binding response (% of control) was inconclusive: 103%. In the case of COC(=O)c1ccc2c(c1)NC(=O)CS2, the binding response (% of control) was inconclusive: 117%. With O=S(=O)(c1ccc2oc(=S)[nH]c2c1)N1CCCCC1 the binding response (% of control) was inconclusive: 193%. COc1ccc(Cl)cc1NC(=O)CN(C)CC(=O)Nc1ccccc1-c1ccccc1 was tested, and the binding response (% of control) was inconclusive: 104%. CCN(CC)CC(=O)Nc1cccc(S(=O)(=O)N2CCCC2)c1 was tested, and the binding response (% of control) was inconclusive: 93.1%. With CCOC(=O)C1=C(C)Nc2ccccc2S1 the binding response (% of control) was inconclusive: 75.7%. Cc1cc(=O)oc2c(CN3CC(C)OC(C)C3)c(O)c(Cl)cc12 (stereo unspecified) was tested, and the binding response (% of control) was inactive: 94.5%. For CCN(CC)S(=O)(=O)c1cccc(NC2=NCCCCC2)c1, the binding response (% of control) was inconclusive: 7.8%. With Cc1cc(Nc2cccc(F)c2)nc(N2CCOCC2)n1 the binding response (% of control) was inconclusive: 102%. In the case of COc1ccc(CCNC2=NCCS2)cc1OC, the binding response (% of control) was inconclusive: 121%. Cc1sc2nc(C)n(/N=C/N(C)C)c(=O)c2c1C was tested, and the binding response (% of control) was inconclusive: 116%. With CN(C)S(=O)(=O)c1cccc(-n2sc3ccccc3c2=O)c1 the binding response (% of control) was inconclusive: 73.1%. In the case of O=C(NCc1csc(-c2cccs2)n1)C1CCC1, the binding response (% of control) was inconclusive: 53.7%. Cn1c(CCN2CCOCC2)nc2cc(NS(=O)(=O)c3ccccc3)ccc21 was tested, and the binding response (% of control) was inconclusive: 42.4%. For COc1cc(OC)cc(N2C(=O)CSCC2=O)c1, the binding response (% of control) was inconclusive: 111%. Cn1c(=O)[nH]c(Nc2ccccc2)c([N+](=O)[O-])c1=O was tested, and the binding response (% of control) was inconclusive: 109%. In the case of CCCCNCC(O)(c1ccc(Cl)cc1)c1ccc(Cl)cc1, the binding response (% of control) was inconclusive: 72.5%. In the case of CN1CCN(C(=O)Nc2cccc(-c3ccccc3)c2)CC1, the binding response (% of control) was inconclusive: 112%. In the case of COc1ccc2nc(COC(=O)c3cccc([N+](=O)[O-])c3)c(C(C)=O)[n+]([O-])c2c1, the binding response (% of control) was inconclusive: 201%. COC(=O)[C@H](CCSC)NC(=O)Nc1cccc(Br)c1 was tested, and the binding response (% of control) was inconclusive: -27.4%.
